These results are taken from publication PMC8605320.

Results are given in words; binding and its absence hold for the method and conditions named. Binding seen in cells or lysates may run through a third protein. Binding can be weak; no strength is given. Tags and fused reporters may be left off the sequences shown.

The target of this assay is T1, SPTLC2^FLAG (WT-SPTLC2 with C-terminal 3xFLAG), in Flp-In T-REx 293 SPTLC2-KO cells (human) (UniProt O15270).
T1 sequence: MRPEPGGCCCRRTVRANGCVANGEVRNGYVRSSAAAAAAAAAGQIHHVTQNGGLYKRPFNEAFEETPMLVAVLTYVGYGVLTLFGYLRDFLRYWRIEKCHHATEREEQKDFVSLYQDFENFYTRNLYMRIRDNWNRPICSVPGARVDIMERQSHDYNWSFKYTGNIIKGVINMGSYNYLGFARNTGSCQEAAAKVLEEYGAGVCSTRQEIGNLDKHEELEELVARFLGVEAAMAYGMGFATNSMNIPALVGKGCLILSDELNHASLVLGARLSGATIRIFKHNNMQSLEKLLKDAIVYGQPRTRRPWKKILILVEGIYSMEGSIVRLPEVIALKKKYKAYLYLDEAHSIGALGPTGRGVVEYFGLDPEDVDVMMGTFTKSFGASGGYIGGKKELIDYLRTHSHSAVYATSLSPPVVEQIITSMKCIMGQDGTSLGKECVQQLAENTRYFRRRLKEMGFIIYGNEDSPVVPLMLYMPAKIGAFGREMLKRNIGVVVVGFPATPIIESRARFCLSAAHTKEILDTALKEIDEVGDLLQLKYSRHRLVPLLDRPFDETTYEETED
Kind of assay: co-IP; heavy membrane fractions of Flp-In T-REx 293 SPTLC2-KO cells with or without WT-, ER- or OM-SPTLC2^FLAG, solubilised with digitonin, FLAG-immunoprecipitation on anti-FLAG M2 beads, eluted with Laemmli buffer, immunoblotting.

As for “CLPB (human (endogenous in Flp-In T-REx 293))”, the binding result is reported as “binds”.
